Experimental data published in paper PMC6238530.
Results are given in words; binding and its absence hold for the method and conditions named. In cells and extracts the contact can be indirect. Some entries that bind do so weakly or less than the wild type.

Protein sequences, listed by entry. Tags and fused reporters are not part of them.
UniProt P03372: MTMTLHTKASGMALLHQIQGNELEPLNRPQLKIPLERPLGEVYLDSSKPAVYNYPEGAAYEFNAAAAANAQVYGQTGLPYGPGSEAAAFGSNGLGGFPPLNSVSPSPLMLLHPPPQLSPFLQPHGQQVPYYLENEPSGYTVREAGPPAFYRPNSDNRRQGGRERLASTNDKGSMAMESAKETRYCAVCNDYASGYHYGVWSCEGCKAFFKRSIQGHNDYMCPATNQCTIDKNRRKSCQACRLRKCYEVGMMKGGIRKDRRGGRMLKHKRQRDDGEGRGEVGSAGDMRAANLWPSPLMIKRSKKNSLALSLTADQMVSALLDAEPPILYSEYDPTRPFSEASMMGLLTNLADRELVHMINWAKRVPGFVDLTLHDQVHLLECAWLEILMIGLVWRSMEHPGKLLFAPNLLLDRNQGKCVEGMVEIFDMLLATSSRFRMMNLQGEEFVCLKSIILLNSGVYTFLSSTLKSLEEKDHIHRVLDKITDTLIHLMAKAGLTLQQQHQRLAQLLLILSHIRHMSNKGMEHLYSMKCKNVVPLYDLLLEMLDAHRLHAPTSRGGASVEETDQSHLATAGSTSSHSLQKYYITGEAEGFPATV

Target: T1, CARM1 (human (endogenous in MDA-MB-134)) (UniProt Q86X55)
T1 sequence: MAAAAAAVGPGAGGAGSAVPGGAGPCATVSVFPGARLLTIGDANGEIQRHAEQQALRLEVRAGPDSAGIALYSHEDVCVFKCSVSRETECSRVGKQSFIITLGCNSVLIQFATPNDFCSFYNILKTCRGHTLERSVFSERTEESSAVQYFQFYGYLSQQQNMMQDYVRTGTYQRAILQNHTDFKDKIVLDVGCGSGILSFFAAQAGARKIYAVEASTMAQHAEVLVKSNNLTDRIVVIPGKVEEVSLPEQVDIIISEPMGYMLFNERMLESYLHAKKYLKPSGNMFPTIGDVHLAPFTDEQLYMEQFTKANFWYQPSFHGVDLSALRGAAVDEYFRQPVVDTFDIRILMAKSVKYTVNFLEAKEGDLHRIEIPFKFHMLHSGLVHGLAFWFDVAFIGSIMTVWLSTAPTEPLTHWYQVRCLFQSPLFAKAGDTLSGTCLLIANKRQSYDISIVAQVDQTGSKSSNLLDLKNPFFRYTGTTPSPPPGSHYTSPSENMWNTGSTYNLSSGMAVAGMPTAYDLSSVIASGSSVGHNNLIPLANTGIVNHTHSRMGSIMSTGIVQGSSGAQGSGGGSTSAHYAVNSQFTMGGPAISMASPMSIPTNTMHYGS
Assay: co-IP; endogenous proteins; MDA-MB-134 cells treated with DMSO, 100 nM E2 or FI (10 uM forskolin, 100 uM IBMX) for 1 h; 2 mg lysate (10 mM Tris-HCl pH 7.5, 50 mM NaCl, 1 mM EDTA, 1 mM DTT, 10% glycerol, 10 mM Na-molybdate) on protein G-dynabeads pre-coated with antibody against ERα or CARM1 or control IgG, overnight at 4°C; immunoblot

## estrogen receptor α (ERα) (from UniProt P03372 1-595)
  binding: binds
